Taken from: PubChem BioAssay AID504764 (Drosophila RNAi Screening Center, 2011)
Aim: 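Knock-downs that raise or lower a Notch target reporter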 (primary screen). Cells: Drosophila Kc167 cells. Knock-down reagent: long dsRNA against Drosophila genes. Time to read-out: about 5 days (4 days dsRNA, then 24 h after transfection). Challenge: transfection of constitutively active membrane-tethered Notch lacking the extracellular domain, read 24 h later. Measured: 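Light from a Notch-responsive E(spl)m3 luciferase reporter under active Notch, with control-promoter and no-Notch reporter wells to normalise; raw counts from paired wells a and b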. Scale: induced reporter light, run 1, well a and induced reporter light, run 1, well b: higher = more light from the Notch target reporter with active Notch; control promoter light, run 1, well a and control promoter light, run 1, well b: higher = more light from the viral control promoter (cell number, transfection, viability); uninduced reporter light, run 1, well a: higher = more light from the Notch target reporter without active Notch. Call rule: 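Wells with low control signal or poorly matching duplicates excluded; duplicates averaged; per source plate, z beyond ±2 for induced/control log2 ratio or beyond ±1.8 for induced/uninduced marks a hit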. Meaning of the calls: active = modifier hit (raised or lowered Notch signal); inactive = not a hit.
The screen tested about 22,000 reagents; shown is an unselected part of those that have a named target and a result. Of all reagents, 403 (1.9%) were called active. 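Unnormalised raw counts per well; ratio z-scores behind the hit calls and whether each hit raises or lowers signal are not deposited.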 Not stated in the record: the amount of reagent.

| Gene | amplicon | induced reporter light, run 1, well a | induced reporter light, run 1, well b | control promoter light, run 1, well a | control promoter light, run 1, well b | uninduced reporter light, run 1, well a | outcome |
| --- | --- | --- | --- | --- | --- | --- | --- |
| CG12818 | DRSC14556 | 79905 | 80050 | 1.23e5 | 75930 | 47355 | inactive |
| GlyT | DRSC04512 | 1.65e5 | 1.38e5 | 1.71e5 | 1.54e5 | 9935 | inactive |
| CG32100 | DRSC09725 | 63700 | 59490 | 87070 | 63965 | 4360 | inactive |
| CG32100 | DRSC10331 | 91770 | 74605 | 1.08e5 | 68795 | 5840 | inactive |
| CG4367 | DRSC15568 | 2.11e5 | 1.88e5 | 2.21e5 | 2.38e5 | 15975 | inactive |
| CG15710 | DRSC06581 | 1.69e5 | 1.45e5 | 1.38e5 | 1.51e5 | 14080 | inactive |
| lz | DRSC18790 | 1.42e5 | 1.28e5 | 1.79e5 | 2.15e5 | 8000 | inactive |
| fs(1)h | DRSC18778 | 2.08e5 | 2.08e5 | 3.09e5 | 3.48e5 | 15465 | inactive |
| CG32119 | DRSC09248 | 2.84e5 | 2.18e5 | 3.39e5 | 2.32e5 | 26505 | active |
| CenB1A | DRSC16923 | 2.03e5 | 1.86e5 | 2.26e5 | 2.32e5 | 16310 | inactive |
| sals | DRSC14925 | 1.14e5 | 1.17e5 | 89430 | 67785 | 9428 | inactive |
| sals | DRSC16113 | 64260 | 52710 | 98450 | 50855 | 4005 | inactive |
| HERC2 | DRSC20566 | 74265 | 75870 | 1.07e5 | 88925 | 9115 | inactive |
| CG3999 | DRSC15534 | 69050 | 86325 | 91355 | 62380 | 5080 | inactive |
| CG12825 | DRSC06174 | 1.82e5 | 2.40e5 | 3.05e5 | 2.69e5 | 20265 | inactive |
| Abcd1 | DRSC17157 | 2.34e5 | 1.84e5 | 3.26e5 | 2.85e5 | 15995 | inactive |
| CG17658 | DRSC04292 | 1.66e5 | 1.68e5 | 1.71e5 | 1.70e5 | 12965 | inactive |
| CG14086 | DRSC10090 | 1.33e5 | 1.27e5 | 1.37e5 | 1.07e5 | 8265 | inactive |
| CG34195 | DRSC06909 | 1.07e5 | 90995 | 88435 | 1.38e5 | 5920 | inactive |
| Bdbt | DRSC15218 | 1.68e5 | 1.70e5 | 1.74e5 | 1.98e5 | 12675 | inactive |
| shu | DRSC04484 | 2.51e5 | 2.57e5 | 2.11e5 | 2.36e5 | 15935 | inactive |
| RpLP0-like | DRSC06424 | 1.41e5 | 1.18e5 | 1.16e5 | 1.19e5 | 10660 | inactive |
| sstn | DRSC10753 | 1.47e5 | 1.59e5 | 1.30e5 | 1.16e5 | 9150 | active |
| scu | DRSC20369 | 80885 | 79980 | 73190 | 84365 | 9475 | inactive |
| hydra | DRSC20497 | 86735 | 1.18e5 | 1.28e5 | 1.71e5 | 11735 | inactive |
| AttD | DRSC16272 | 1.72e5 | 1.63e5 | 2.50e5 | 2.28e5 | 11988 | inactive |

Only “control promoter light, run 1, well b”, for 5 of the entries above:
HERC2 [DRSC20566]: 88925
CG3999 [DRSC15534]: 62380
CG12825 [DRSC06174]: 2.69e5
Abcd1 [DRSC17157]: 2.85e5
CG17658 [DRSC04292]: 1.70e5

More records follow:
| Gene | amplicon | induced reporter light, run 1, well a | induced reporter light, run 1, well b | control promoter light, run 1, well a | control promoter light, run 1, well b | uninduced reporter light, run 1, well a | outcome |
| --- | --- | --- | --- | --- | --- | --- | --- |
| CG30284 | DRSC22150 | – | – | – | – | – | inactive |
| CG33922 | DRSC00050 | 1.03e5 | 98110 | 1.48e5 | 1.27e5 | 7465 | inactive |
| CG11227 | DRSC20476 | 90905 | 89120 | 1.08e5 | 1.00e5 | 8875 | inactive |
| stil | DRSC07699 | 1.82e5 | 1.85e5 | 1.85e5 | 1.91e5 | 14855 | inactive |
| LManII | DRSC01986 | 2.71e5 | 2.71e5 | 1.90e5 | 1.99e5 | 17690 | inactive |
| Eig71Ed | DRSC11151 | 1.76e5 | 1.64e5 | 2.46e5 | 2.29e5 | 4510 | inactive |
| Lsm10 | DRSC06250 | 1.54e5 | 1.44e5 | 2.04e5 | 2.20e5 | 13090 | inactive |
| CG14153 | DRSC10155 | 1.47e5 | 90430 | 1.24e5 | 1.51e5 | 7700 | inactive |
| superdeath | DRSC14868 | 2.52e5 | 2.06e5 | 2.72e5 | 2.59e5 | 13555 | inactive |
| TwdlY | DRSC19153 | 1.01e5 | 83985 | 89095 | 85365 | 7475 | inactive |
| CG3690 | DRSC18170 | 1.13e5 | 1.22e5 | 2.11e5 | 1.89e5 | 7500 | inactive |
| CG3690 | DRSC18641 | 1.31e5 | 1.58e5 | 2.52e5 | 2.14e5 | 9255 | inactive |
| CG8958 | DRSC20134 | 90180 | 1.12e5 | 1.01e5 | 82180 | 12480 | inactive |
| CG17650 | DRSC00510 | 13615 | 11105 | 8988 | 8395 | 1290 | inactive |
| Cpr60D | DRSC04492 | 1.38e5 | 1.47e5 | 1.56e5 | 1.28e5 | 9578 | inactive |
| ND6 (retired record) | DRSC21271 | 1.11e5 | 88820 | 92490 | 1.11e5 | 11255 | inactive |
| CG31823 | DRSC01887 | 1.11e5 | 1.04e5 | 1.21e5 | 1.45e5 | 10295 | inactive |
| ND-13B | DRSC10643 | 1.37e5 | 1.45e5 | 1.72e5 | 1.29e5 | 4330 | active |
| Setd3 | DRSC17840 | 1.48e5 | 1.62e5 | 2.74e5 | 2.85e5 | 10670 | inactive |
| Setd3 | DRSC18269 | 1.61e5 | 1.69e5 | 2.52e5 | 2.22e5 | 11705 | inactive |
| CG13875 | DRSC08345 | 1.71e5 | 1.50e5 | 1.98e5 | 1.59e5 | 7350 | inactive |
| vih | DRSC09778 | 1.46e5 | 1.19e5 | 2.74e5 | 2.31e5 | 9475 | active |
| CG13717 (retired record) | DRSC08116 | 2.59e5 | 1.95e5 | 2.91e5 | 2.23e5 | 14480 | inactive |
| CG13717 (retired record) | DRSC08324 | 1.96e5 | 1.73e5 | 1.73e5 | 1.82e5 | 9680 | inactive |
| CG13717 (retired record) | DRSC08326 | 21895 | 15560 | 18110 | 21632 | 3205 | inactive |
| CG13717 (retired record) | DRSC21337 | – | – | – | – | – | inactive |
| scramb2 | DRSC08543 | 99540 | 73930 | 1.83e5 | 1.12e5 | 5232 | inactive |
| Ice1 | DRSC04191 | 1.78e5 | 2.00e5 | 1.59e5 | 1.55e5 | 12880 | inactive |
| CG33181 | DRSC17971 | 1.36e5 | 1.78e5 | 2.16e5 | 2.11e5 | 12260 | inactive |
| CG33181 | DRSC22376 | – | – | – | – | – | inactive |
| Hsp27 | DRSC11190 | 1.16e5 | 1.27e5 | 86170 | 34115 | 10910 | inactive |
| CG7294 | DRSC03041 | 71725 | 1.00e5 | 68850 | 1.00e5 | 14775 | inactive |
| kuz | DRSC03555 | 1.17e5 | 1.11e5 | 1.22e5 | 1.54e5 | 8965 | inactive |
| CG15506 | DRSC15047 | 1.27e5 | 1.26e5 | 1.91e5 | 1.47e5 | 13305 | inactive |
| Chd64 | DRSC08649 | 1.42e5 | 1.48e5 | 88330 | 34790 | 9325 | inactive |
| CG11815 | DRSC08209 | 1.16e5 | 1.74e5 | 2.58e5 | 2.45e5 | 5120 | inactive |
| CG14989 | DRSC08448 | 1.78e5 | 1.43e5 | 1.06e5 | 58700 | 12800 | inactive |
| Josd | DRSC18323 | 1.28e5 | 1.44e5 | 2.18e5 | 2.22e5 | 10338 | inactive |
